Test results reported in the supplement of paper PMC3334620.
In all, about 33,000 sequences were measured (“E-score (-0.5 to 0.5)”: median about -0.015, highest 2% from about 0.3 on). The list shows a part of the results.

The sequences below were run against T1, Abf1 (UniProt P14164) (assay: PBM E-score (8-mer binding enrichment) (E-score (-0.5 to 0.5)); higher = stronger / more preferred TF binding). Conditions: protein concentration: 200 nM; construct: GST-full length.
T1 sequence: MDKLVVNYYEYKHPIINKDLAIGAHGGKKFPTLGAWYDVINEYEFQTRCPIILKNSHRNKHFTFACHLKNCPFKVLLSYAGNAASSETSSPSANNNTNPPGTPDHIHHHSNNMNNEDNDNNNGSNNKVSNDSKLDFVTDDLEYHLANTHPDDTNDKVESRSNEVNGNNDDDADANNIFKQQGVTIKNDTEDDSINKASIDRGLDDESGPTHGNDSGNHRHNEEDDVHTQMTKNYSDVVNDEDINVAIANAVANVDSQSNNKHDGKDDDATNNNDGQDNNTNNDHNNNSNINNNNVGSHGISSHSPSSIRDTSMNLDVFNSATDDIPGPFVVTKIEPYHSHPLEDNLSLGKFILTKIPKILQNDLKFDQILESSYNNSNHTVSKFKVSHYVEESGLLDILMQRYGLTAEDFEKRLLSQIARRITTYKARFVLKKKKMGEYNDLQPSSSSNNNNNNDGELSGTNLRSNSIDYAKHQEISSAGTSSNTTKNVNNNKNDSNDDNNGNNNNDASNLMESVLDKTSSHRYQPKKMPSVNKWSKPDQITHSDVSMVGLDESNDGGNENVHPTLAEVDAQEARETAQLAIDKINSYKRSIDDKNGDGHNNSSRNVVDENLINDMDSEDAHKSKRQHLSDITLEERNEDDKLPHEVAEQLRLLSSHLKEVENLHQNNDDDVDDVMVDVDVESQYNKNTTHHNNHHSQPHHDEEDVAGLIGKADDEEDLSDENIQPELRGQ
Method in brief: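 Yeast transcription factors carrying a GST tag, as full-length proteins or DNA-binding domains, were produced by PURExpress in vitro transcription/translation. About 100-200 nM protein was applied to universal all-10-mer Agilent arrays, double-stranded by primer extension on fresh or once-stripped slides. Bound protein was detected with fluorescent anti-GST, and scans were normalised with masliner. The Universal PBM Analysis Suite gave each ungapped eight-base word, pooled with its reverse complement, an E-score, a modified Wilcoxon-Mann-Whitney statistic.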

Sequence | PBM E-score
AAGTGCAA | 0.0101
TGTGATAA | 0.297
CAACCGGG | -0.116
TCGCCCAA | -0.0297
ATGAATAC | 0.148
TGATTCAA | 0.0649
CACATGGA | 0.00533
TATACTGA | 0.232
ACAAAGTG | 0.172
CTCATAGA | -0.0846
ACGCGCGG | 0.0477
ACAATCGA | -0.0266
ATTATTAA | 0.199
TGAAAAAA | 0.0184
CACGCCGG | -0.0297
CGTTTGCC | 0.0411
AGATAATG | 0.0861
ATGAGGAC | 0.0336
GCCATCGC | -0.0666
ACAGGGAA | -0.153
AGCCCAGC | -0.184
AATTGTAA | -0.121
ACGCTCGC | 0.0194
AGAGTCTG | -0.187
GGAGCTAC | -0.211

Sequence | PBM E-score
TAGCCAGA | -0.0467
AGCTAATC | 0.142
GTCCACGA | 0.223
GTACTCGA | -0.0155
CATATGAA | 0.0102
GAGATCTA | -0.121
TGTTACAA | 0.134
CTTTGGTA | 0.0379
ATTAACAC | 0.213
GCCCACCA | -0.236
CCCAAGCG | 0.0254
AACTTGTA | 0.00627
CTTAAAGA | -0.195
CATAACAG | -0.0699
AGGAACGG | 0.0997
AAGAACCC | -0.182
TAGACGAA | 0.338
GAGTGTCA | 0.163
AGAGTGCA | -0.113
GGAGTGTA | -0.184
ATTTACCC | -0.014
ACCATAAA | 0.141
CCCAATAC | -0.137
CGATGATA | 0.305
CAGGGTCC | -0.194

Sequence | PBM E-score
ACGATGTA | 0.203
CAGATTAC | 0.0682
ACAGTGGA | 0.127
CATAGCTC | -0.143
CGAGCGTA | 0.109
AACTCGAG | -0.0947
GAAGGGAA | -0.157
AAAGATCG | 0.157
CGTCTCAG | 0.0175
CTTAATAC | 0.129
ACCTCTCC | -0.267
TAAGACTA | -0.0858
GAGAATCC | -0.00411
GAATTTGA | 0.0683
TACGCTCA | 0.0112
CGGAGAAC | -0.184
CAGGGAAG | -0.338
CTTCAATA | 0.0545
TGGCGAAA | -0.144
TAGCACAA | -0.106
GTGATAAA | 0.412
GCGTCCAA | -0.114
CAGAAAGG | -0.12
TTACGCAA | 0.0864
AGTCACAG | 0.0551

Rewritten as a markdown table: part of the list above

| Sequence | PBM E-score |
| --- | --- |
| ACAGTGGA | 0.127 |
| CGAGCGTA | 0.109 |
| GAGAATCC | -0.00411 |
| CAGGGAAG | -0.338 |

Not a retest: an excerpt of the list.
Sequence | PBM E-score
CGTCTCAG | 0.0175
CTTAATAC | 0.129
ACCTCTCC | -0.267
TAAGACTA | -0.0858
GAGAATCC | -0.00411

Some values from the entries so far.
In PBM E-score, ATTTACCC is listed with -0.014
In PBM E-score, TAGACGAA is listed with 0.338

Following part

Sequence | PBM E-score
CCCCCGCA | -0.263
GTACAGTA | -0.0741
AACAGTGA | 0.201
CAATACCC | 0.116
TCCGAAGA | -0.0522
CGCAATAG | -0.0336
CGATGGCA | -0.244
ACCGACGG | 0.147
AACGCATA | 0.111
CTGTGTTC | -0.0651
ATTAGGTC | 0.177
AGCACTTA | -0.0307
CTACGTTA | 0.152
TAGTACTA | 0.0338
GTTGTTCA | 0.0687
ACCGCCGG | -0.27
GAATTAAA | 0.00779
CCCAACAA | 0.0712
AGCATGCT | -0.103
CGACACAG | 0.077
GGTCTCAA | -0.103
ATTATTAG | 0.164
GTCGTCAC | 0.35
ACGGTGAA | 0.193
GCCTGTGA | -0.169

Sequence | PBM E-score
CCTAAACC | -0.0979
CTAGATCC | 0.057
CACATACA | -0.183
CAAACTTA | 0.134
ATTTTGGG | -0.0842
CTAAACCC | -0.083
CACCACGG | -0.187
AAGCTTAA | -0.204
GCTCTGCA | -0.285
AACTACCA | -0.066
GGTCGTCA | 0.262
CCAGTTTC | -0.0969
TTCTCAAA | 0.0846
TCCAAGAA | -0.156
CCACGGAG | 0.0851
AAGCTAAG | -0.137
CACCCAGG | -0.214
ACCGAGTA | -0.118
TCCCGCCA | -0.119
GGCTTATA | -0.00496
CTGGTATA | 0.0245
TATTGCGA | 0.171
GAGCTGAA | -0.118
ATATATTG | -0.139
CTATTTAC | 0.204

Sequence | PBM E-score
ATTGGGCG | -0.163
AATCACGC | 0.127
CGTAGGTC | 0.00797
GCGAGTGA | 0.137
AACATCAA | 0.118
ACTAAGAT | 0.243
TGGTAAAA | -0.0106
CAATCCGC | 0.101
CGAGAGAC | 0.0295
CGTCTCAC | 0.105
AATGCAAG | -0.0551
ATACCTAT | -0.0121
ACTTCTCC | -0.134
ATAGAGGG | -0.102
ACTACAGT | 0.0322
CAAGCCTG | -0.122
GCGTTCAC | -0.00207
ATGTTGCC | -0.0429
CATAGACA | -0.0475
ATTTGTAC | 0.0998
GAGTCTGA | -0.159
TCATGTAA | 0.0458
AAATGCGT | 0.128
AGCGGCCC | -0.291
CATTCCTC | 0.0225

Sequence | PBM E-score
GAAACCTA | -0.202
AAGATTAA | 0.0801
GACCCTTA | -0.0356
ATGCTTAA | -0.114
CATCACGC | 0.191
AAGCTACA | 0.00329
GCATAAAA | 0.108
AAGCACCT | -0.0519
CCGGGTGA | 0.12
AAGTGCGT | -0.136
CTCGGCAG | -0.0597
ATATTGGC | 0.105
CACCTGCG | -0.0256
CGTCCCGC | -0.0216
AACGTTCG | 0.07
ACTCGTGA | 0.162
ATGTGAGC | -0.0727
TCAGGTCA | 0.0438
AAGCTTTG | -0.169
AAGATAGC | -0.0167
AACTTCCG | 0.139
ATCCGCTG | 0.0713
